No constants are given. Whether binding was seen depends on the method and setting. In cells and extracts the contact can be indirect. Some entries that bind do so weakly or less than the wild type.
Key:
[1] = molecular target: T1, RhoEα, short isoform of RhoE (human) (UniProt P61587); test: co-IP, HEK293 cells
T1 sequence: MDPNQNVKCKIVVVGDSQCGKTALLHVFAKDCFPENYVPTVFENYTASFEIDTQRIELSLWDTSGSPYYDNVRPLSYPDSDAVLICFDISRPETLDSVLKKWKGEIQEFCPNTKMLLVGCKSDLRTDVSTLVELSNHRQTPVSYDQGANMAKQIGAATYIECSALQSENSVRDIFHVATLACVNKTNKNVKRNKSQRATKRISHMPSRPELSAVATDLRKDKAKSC

Protein sequences, listed by entry. Tags and fused reporters are not part of them. Residues count along the entry.
UniProt Q13464, residues 2-1354: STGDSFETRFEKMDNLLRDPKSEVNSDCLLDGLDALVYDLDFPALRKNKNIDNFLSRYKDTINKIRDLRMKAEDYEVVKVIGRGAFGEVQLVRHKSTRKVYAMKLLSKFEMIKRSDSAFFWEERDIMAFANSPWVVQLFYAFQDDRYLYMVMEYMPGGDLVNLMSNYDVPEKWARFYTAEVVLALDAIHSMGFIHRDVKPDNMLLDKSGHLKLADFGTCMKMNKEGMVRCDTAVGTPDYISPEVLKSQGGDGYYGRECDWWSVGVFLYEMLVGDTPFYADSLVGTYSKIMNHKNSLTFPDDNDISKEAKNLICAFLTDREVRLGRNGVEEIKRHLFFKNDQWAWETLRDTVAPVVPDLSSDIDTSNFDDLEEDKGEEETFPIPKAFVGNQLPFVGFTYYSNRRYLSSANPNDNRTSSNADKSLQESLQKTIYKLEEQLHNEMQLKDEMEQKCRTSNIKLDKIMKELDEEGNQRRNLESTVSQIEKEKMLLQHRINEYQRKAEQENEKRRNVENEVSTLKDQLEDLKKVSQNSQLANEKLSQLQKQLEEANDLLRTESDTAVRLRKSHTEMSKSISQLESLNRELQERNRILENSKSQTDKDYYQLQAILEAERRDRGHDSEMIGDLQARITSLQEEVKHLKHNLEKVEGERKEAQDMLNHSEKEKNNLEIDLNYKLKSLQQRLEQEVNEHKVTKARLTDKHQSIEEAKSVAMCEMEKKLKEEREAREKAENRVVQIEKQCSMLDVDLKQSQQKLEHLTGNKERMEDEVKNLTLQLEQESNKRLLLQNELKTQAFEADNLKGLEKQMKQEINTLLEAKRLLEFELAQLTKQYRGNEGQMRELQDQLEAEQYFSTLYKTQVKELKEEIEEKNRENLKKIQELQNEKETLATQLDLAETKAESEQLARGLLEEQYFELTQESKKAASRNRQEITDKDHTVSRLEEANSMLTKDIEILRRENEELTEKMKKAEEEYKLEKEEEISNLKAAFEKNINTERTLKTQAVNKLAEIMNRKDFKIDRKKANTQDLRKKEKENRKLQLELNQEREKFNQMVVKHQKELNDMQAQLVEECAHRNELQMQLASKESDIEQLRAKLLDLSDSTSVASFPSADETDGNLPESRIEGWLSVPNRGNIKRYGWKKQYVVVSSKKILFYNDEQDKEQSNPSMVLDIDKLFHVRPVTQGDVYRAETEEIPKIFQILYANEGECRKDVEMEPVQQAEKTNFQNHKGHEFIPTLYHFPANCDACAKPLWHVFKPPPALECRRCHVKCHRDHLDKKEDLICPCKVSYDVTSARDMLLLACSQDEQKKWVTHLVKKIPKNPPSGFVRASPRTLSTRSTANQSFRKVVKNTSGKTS

[2] = molecular target: T2, RND3, referred to alternately as RhoE (human) (UniProt P61587); test: co-IP, HEK293 cells
T2 sequence: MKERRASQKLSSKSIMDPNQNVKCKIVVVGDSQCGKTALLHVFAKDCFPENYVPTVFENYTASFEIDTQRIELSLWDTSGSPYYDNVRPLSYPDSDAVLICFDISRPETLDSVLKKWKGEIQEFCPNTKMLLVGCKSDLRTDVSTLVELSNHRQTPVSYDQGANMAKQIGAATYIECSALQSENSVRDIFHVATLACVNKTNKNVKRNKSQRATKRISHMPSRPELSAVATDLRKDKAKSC

For “Rho-associated coiled-coil kinase 1 (ROCK1) (from UniProt Q13464 2-1354) (enzyme)”, the binding [1] was “binds” and the binding [2] was “binds”.

From US20220251568A1
